Measured values as given in paper PMC11480453.

B1: 3xflag-SPCS3 (protein, UniProt P61009 1-180)
chain: MNTVLSRANSLFAFSLSVMAALTFGCFITTAFKDRSVPVRLHVSRIMLKNVEDFTGPRERSDLGFITFDITADLENIFDWNVKQLFLYLSAEYSTKNNALNQVVLWDKIVLRGDNPKLLLKDMKTKYFFFDDGNGLKGNRNVTLTLSWNVVPNAGILPLVTGSGHVSVPFPDTYEITKSY

Legend:
Assay in all cases: co-IP
[1] = molecular target: T1, 3xflag-SPCS3 (human (cDNA from THP-1 cells)) (UniProt P61009)
T1 sequence: B1 chain

[2] = molecular target: myc-E2 (chikungunya virus, vaccine strain 181/clone 25)
[3] = molecular target: CHIKV E1-3xflag (chikungunya virus, vaccine strain 181/clone 25)

Molecule | binding [1] | binding [2] | binding [3]
CHIKV E1 glycoprotein | binds | – | –
CHIKV poly-glycoprotein E3-myc-E2-6K-E1 (uncleaved) | binds | – | –
myc-E2 | no binding | – | –
B1 | – | no binding | binds

These are yes or no findings as the source states them, for the method shown. Binding seen in cells or lysates may run through a third protein. For some assays here: Binding calls can cover weak binding; strength is not graded here. Tags and fused reporters may be left off the sequences shown.
